Paper PMC11729338, “Molecular Characterization and Interaction between Human VEGF-D and VEGFR-3” (Journal of Microbiology and Biotechnology, 2024)
Results are given in words; binding and its absence hold for the method and conditions named. Some results given as binding are weak or reduced against the parent protein; the word gives no strength.

Sequences of proteins named here, by UniProt entry; tags and fusion partners are left off. A change or cut given only in a name is not applied to a line headed by its entry. A line that says so, or that is headed by a name, gives the form on record, which may keep a tag or linker. Residues count along the entry.
GST-tagged VEGF-D (residues 89-205) D103A (O43915, form named): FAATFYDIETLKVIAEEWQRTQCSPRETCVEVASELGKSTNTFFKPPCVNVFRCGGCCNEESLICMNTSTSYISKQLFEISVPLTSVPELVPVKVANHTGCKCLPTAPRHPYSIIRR
GST-tagged VEGF-D (residues 89-205) Q110A (O43915, form named): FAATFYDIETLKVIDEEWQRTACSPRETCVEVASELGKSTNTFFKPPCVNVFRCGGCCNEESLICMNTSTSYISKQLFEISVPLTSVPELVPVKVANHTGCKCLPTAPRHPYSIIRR
UniProt P35916, residues 30-326: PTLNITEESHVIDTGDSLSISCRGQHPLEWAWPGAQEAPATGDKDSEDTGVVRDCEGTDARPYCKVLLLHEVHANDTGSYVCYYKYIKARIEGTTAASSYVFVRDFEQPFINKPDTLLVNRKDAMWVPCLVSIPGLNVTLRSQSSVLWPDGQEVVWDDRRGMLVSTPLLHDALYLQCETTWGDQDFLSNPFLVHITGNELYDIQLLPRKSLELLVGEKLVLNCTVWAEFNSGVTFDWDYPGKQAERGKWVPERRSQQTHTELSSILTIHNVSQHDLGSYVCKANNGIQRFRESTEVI

Assays:
[1] = molecular target: GST-tagged VEGF-D (residues 89-205) D103A (human) (UniProt O43915); assay: pull-down; 50 ug GST-tagged VEGF-D or mutant on Glutathione Sepharose 4 Fast Flow beads, 50 ug His-VEGFR-3 in 1X PBS, on ice overnight; eluted with 30 mM glutathione; Western blot with anti-His and anti-GST; both purified
[2] = molecular target: GST-tagged VEGF-D (residues 89-205) Q110A (human) (UniProt O43915); assay: as above

In the case of “His-tagged VEGFR-3 (residues 30-326) (from UniProt P35916 30-326) (receptor)”, the binding [1] is reported as “binds weakly” and the binding [2] is reported as “binds weakly”.
